# Source: the supplement of paper PMC10849652
# Sequences of proteins named here, by UniProt entry; tags and fusion partners are left off. A change or cut given only in a name is not applied to a line headed by its entry.
# UniProt P25685, whole entry, looked up: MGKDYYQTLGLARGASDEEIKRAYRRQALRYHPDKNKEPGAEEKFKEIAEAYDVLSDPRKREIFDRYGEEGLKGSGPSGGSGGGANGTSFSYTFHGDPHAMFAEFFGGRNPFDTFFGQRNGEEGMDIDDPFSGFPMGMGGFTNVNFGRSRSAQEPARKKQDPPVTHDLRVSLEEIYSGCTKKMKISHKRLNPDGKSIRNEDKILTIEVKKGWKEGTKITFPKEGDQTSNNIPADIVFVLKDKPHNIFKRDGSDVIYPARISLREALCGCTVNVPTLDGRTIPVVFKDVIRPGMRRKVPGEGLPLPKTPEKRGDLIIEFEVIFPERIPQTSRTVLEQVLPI
# UniProt Q96LJ7: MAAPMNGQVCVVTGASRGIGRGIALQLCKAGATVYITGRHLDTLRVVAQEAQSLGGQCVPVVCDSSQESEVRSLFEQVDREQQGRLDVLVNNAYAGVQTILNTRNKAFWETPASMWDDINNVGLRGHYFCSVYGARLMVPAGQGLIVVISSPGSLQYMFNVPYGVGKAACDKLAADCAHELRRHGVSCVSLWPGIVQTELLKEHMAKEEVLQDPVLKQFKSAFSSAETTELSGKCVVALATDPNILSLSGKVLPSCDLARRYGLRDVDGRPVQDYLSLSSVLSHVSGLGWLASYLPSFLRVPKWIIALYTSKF
# UniProt Q96KC8: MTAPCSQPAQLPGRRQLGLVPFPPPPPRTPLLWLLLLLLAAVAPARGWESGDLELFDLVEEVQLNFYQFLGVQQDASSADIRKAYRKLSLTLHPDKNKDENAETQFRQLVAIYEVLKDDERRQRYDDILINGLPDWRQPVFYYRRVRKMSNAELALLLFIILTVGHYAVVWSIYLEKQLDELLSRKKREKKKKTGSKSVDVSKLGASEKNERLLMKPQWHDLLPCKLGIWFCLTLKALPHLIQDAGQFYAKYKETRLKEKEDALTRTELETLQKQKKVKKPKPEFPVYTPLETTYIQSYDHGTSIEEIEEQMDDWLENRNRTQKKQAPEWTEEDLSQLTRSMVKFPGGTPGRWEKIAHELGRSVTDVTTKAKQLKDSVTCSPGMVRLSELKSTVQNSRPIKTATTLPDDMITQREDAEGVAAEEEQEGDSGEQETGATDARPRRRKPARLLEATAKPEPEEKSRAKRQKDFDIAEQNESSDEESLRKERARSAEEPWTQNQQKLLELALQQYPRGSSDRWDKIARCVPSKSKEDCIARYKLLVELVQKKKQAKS
# UniProt Q9NPF5, whole entry, looked up: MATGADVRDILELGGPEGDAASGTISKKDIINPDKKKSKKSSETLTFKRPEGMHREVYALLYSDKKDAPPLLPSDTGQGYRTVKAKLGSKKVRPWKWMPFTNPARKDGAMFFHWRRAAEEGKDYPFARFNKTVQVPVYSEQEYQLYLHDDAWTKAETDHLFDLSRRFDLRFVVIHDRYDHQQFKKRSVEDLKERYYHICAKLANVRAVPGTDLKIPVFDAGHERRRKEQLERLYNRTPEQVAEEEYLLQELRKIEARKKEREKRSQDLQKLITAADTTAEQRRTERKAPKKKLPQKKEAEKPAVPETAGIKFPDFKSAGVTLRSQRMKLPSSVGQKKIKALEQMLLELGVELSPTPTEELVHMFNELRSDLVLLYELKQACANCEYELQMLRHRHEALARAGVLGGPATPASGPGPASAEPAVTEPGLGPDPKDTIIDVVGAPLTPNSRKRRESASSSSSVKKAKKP
# UniProt O75937: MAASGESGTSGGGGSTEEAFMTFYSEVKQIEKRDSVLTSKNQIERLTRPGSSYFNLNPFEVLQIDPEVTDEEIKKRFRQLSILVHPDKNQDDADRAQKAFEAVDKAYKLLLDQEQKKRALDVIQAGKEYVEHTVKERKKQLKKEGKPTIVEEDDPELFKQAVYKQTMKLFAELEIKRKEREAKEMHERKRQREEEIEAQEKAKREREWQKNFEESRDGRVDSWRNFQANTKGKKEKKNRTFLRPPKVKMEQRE
# UniProt Q9Y3R5: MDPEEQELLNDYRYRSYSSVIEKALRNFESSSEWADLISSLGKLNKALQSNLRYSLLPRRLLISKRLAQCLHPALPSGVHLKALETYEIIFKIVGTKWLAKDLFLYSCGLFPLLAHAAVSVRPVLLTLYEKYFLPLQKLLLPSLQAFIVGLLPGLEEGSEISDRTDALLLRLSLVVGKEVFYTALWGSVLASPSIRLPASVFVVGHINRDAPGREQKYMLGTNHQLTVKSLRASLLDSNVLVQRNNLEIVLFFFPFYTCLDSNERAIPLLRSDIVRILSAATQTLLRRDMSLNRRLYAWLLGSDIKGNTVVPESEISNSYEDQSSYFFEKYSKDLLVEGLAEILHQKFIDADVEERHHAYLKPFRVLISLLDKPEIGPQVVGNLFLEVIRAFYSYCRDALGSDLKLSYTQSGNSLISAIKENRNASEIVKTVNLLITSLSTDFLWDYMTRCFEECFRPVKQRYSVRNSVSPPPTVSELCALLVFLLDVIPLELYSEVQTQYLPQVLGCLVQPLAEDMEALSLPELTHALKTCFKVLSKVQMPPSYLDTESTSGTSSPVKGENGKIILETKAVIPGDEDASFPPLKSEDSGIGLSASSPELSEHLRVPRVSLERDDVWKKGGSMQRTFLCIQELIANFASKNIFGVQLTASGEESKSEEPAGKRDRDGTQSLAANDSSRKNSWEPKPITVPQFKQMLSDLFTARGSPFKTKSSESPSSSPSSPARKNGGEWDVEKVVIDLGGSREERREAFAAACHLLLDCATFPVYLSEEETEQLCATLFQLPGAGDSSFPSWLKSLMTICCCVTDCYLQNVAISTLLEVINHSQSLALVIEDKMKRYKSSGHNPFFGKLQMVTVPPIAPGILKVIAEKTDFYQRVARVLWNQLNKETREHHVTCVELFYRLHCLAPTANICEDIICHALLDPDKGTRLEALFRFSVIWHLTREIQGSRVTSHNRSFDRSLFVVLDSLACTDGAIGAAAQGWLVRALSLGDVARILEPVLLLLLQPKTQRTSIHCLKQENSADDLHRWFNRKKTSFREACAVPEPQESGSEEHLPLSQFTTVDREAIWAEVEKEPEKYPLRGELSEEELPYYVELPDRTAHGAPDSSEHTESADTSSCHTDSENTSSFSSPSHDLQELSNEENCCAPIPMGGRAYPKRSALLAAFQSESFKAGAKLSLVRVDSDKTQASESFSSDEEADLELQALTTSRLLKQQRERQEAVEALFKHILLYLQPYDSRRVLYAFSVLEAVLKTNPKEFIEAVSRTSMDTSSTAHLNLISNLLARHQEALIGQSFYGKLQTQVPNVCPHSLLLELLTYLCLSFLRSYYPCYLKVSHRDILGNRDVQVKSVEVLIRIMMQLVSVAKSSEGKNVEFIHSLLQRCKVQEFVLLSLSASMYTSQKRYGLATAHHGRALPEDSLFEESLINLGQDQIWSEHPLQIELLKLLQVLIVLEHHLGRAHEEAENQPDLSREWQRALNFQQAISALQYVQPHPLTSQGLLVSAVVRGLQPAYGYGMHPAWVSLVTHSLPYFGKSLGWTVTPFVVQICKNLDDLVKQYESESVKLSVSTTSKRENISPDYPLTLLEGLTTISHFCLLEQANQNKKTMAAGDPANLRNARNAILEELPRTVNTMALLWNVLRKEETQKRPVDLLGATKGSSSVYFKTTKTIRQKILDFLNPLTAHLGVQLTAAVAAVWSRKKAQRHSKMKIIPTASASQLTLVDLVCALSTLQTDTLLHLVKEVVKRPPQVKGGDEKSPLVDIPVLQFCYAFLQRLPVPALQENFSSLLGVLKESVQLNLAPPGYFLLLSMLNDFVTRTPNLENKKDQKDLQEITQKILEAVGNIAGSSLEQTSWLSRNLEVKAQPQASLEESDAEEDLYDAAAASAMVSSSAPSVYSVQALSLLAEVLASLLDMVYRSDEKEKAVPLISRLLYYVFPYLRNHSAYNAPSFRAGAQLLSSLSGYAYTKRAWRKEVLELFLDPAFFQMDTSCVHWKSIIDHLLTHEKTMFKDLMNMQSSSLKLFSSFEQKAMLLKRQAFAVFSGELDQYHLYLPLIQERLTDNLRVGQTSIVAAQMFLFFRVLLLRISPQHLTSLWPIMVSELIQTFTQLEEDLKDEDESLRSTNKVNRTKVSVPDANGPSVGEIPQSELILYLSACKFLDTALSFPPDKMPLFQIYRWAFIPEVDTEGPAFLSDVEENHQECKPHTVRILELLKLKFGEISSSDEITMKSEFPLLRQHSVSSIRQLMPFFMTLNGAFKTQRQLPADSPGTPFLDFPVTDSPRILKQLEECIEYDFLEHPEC
# UniProt P52429: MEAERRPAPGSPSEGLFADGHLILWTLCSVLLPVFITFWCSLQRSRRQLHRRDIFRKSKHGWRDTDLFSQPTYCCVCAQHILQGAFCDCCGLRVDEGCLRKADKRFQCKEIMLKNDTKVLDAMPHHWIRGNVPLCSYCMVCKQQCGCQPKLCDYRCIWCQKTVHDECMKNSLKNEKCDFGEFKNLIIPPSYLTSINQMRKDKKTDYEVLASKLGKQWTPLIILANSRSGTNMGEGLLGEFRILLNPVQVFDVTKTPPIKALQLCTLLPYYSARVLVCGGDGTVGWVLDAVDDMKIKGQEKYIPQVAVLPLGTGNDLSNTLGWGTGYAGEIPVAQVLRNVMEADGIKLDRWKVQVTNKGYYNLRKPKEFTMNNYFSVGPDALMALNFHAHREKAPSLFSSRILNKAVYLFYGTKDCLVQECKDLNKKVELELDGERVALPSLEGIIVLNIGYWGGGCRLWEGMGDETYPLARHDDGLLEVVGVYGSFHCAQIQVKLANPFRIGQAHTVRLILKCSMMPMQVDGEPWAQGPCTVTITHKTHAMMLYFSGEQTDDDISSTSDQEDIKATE
# UniProt P52824: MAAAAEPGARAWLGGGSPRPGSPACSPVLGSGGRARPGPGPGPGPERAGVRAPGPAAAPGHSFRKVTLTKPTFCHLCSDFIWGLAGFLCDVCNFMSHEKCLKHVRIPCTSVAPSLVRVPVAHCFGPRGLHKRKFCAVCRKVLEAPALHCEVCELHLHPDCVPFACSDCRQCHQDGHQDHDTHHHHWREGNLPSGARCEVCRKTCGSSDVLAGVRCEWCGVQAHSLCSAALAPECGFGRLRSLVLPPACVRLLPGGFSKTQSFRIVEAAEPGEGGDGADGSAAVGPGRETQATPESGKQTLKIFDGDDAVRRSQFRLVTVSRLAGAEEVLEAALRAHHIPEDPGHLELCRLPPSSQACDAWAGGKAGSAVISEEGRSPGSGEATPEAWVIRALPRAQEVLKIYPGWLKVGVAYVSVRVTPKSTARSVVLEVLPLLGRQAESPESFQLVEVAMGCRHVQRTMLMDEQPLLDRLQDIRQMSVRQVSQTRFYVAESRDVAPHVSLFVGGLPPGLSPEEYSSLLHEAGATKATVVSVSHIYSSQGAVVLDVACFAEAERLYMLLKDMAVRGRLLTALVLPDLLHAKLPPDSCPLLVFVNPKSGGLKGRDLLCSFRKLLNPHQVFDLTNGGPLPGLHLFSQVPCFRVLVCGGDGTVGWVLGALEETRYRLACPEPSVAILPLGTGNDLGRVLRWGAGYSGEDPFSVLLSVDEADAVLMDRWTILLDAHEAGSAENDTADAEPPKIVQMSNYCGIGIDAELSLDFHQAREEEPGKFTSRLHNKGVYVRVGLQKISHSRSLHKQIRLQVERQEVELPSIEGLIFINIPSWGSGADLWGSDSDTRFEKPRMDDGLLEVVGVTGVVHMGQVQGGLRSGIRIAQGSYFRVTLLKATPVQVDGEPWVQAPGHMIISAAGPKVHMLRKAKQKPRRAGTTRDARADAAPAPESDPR
# UniProt Q5QJE6: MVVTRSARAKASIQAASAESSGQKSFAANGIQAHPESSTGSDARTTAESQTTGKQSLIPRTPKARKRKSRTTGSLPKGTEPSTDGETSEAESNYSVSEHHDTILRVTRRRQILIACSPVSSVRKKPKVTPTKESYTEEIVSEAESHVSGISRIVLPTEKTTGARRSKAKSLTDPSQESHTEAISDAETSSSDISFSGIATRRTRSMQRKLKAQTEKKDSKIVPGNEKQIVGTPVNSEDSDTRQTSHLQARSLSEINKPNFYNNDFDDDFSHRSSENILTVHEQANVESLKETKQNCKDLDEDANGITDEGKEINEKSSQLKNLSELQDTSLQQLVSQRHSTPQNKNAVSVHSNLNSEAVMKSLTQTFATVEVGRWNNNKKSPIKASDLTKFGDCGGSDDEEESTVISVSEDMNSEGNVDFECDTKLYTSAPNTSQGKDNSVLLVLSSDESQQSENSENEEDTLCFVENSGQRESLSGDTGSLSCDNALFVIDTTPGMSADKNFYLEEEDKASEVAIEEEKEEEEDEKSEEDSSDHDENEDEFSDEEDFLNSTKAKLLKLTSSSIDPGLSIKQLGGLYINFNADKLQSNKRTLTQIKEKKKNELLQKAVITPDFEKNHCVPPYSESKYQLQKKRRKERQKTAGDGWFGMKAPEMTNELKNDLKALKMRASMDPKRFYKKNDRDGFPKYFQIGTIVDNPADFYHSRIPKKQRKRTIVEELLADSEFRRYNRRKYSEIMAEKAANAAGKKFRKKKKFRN
# This is one part of the list.
# Experiments:
# Experiment in all cases: log2 fold change, soluble protein after heating vs DMSO (PISA); higher = thermal stabilisation; K562 lysate, 10 uM; active = over 0.2 and 3.5 SD of the protein, either way, in both replicates (recomputed)
# vemurafenib = compound: CCCS(=O)(=O)Nc1ccc(F)c(C(=O)c2c[nH]c3ncc(-c4ccc(Cl)cc4)cc23)c1F [vemurafenib]
# Method in brief: (§1)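 Following dounce homogenisation of K562 pellets in PBS pH 7.4 with 1 mM MgCl2, crude extract at 1 mg/mL protein was incubated for 30 min with 10 μM compound. Aliquots were then heated for 3 min over 48°C-58°C and pooled, NP-40 was added to 0.5% at 4°C, and soluble protein was recovered as the supernatant at 21,000xg for 90 min. Channel-sum-equalised TMTpro 16plex LC-MS/MS quantified this protein. Each value, from duplicates, is a log-two fold change in thermal stability relative to solvent controls.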
# [1] = compound: CCCS(=O)(=O)Nc1ccc(F)c(C(=O)c2c[nH]c3ncc(Cl)cc23)c1F
# Method in brief: as §1
# barasertib = compound: CCN(CCCOc1ccc2c(Nc3cc(CC(=O)Nc4cccc(F)c4)[nH]n3)ncnc2c1)CCOP(=O)(O)O [barasertib]
# Method in brief: as §1
# [2] = compound: CC[C@@H]1C(=O)N(C)c2cnc(Nc3ccc(C(=O)NC4CCN(C)CC4)cc3OC)nc2N1C1CCCC1
# Method in brief: as §1
# volasertib = compound: CC[C@@H]1C(=O)N(C)c2cnc(Nc3ccc(C(=O)N[C@H]4CC[C@H](N5CCN(CC6CC6)CC5)CC4)cc3OC)nc2N1C(C)C [volasertib]
# Method in brief: as §1
# [3] = compound: CCn1c(C(=O)N(C2CC2)C2CC2)cc2c3c(ncn3C)c(Nc3cc(C)n(C)n3)nc21
# Method in brief: as §1
# [4] = compound: CCn1cc(-c2ccnc3[nH]c(-c4cccc(CN(C)C)c4)cc23)c(-c2ccc(NC(=O)N(C)C)cc2)n1
# Method in brief: as §1
# [5] = compound: CN1CCC(CNc2ccc3ncc(-c4cccc(OC(F)(F)F)c4)n3n2)CC1
# Method in brief: as §1
# saracatinib = compound: CN1CCN(CCOc2cc(OC3CCOCC3)c3c(Nc4c(Cl)ccc5c4OCO5)ncnc3c2)CC1 [saracatinib]
# Method in brief: as §1
# sotrastaurin = compound: CN1CCN(c2nc(C3=C(c4c[nH]c5ccccc45)C(=O)NC3=O)c3ccccc3n2)CC1 [sotrastaurin]
# Method in brief: as §1
Target,log2 fold change (vemurafenib),log2 fold change [1],log2 fold change (barasertib),log2 fold change [2],log2 fold change (volasertib),log2 fold change [3],log2 fold change [4],log2 fold change [5],log2 fold change (saracatinib),log2 fold change (sotrastaurin)
DOK3 (UniProt Q7L591),inactive: -0.041,inactive: 0.039,inactive: -0.054,inactive: 0.192,inactive: 0.008,inactive: 0.062,inactive: -0.127,inactive: 0.178,inactive: -0.018,inactive: 0.023
DNAJB1 (UniProt P25685),inactive: -0.066,inactive: 0.002,inactive: 0.03,inactive: 0.053,inactive: -0.054,inactive: 0.059,inactive: -0.035,inactive: -0.05,inactive: 0.012,inactive: -0.024
DLGAP5 (UniProt Q15398),inactive: 0.01,inactive: 0.009,inactive: 0.007,inactive: -0.018,inactive: -0.013,inactive: 0,inactive: -0.024,inactive: 0.019,inactive: 0.013,inactive: -0.004
DGCR8 (UniProt Q8WYQ5),inactive: -0.022,inactive: 0.031,inactive: 0.062,inactive: -0.046,inactive: -0.021,inactive: 0.015,inactive: -0.052,inactive: 0.066,inactive: 0.042,inactive: 0.04
DNAJC5 (UniProt Q9H3Z4),inactive: 0.001,inactive: -0.02,inactive: 0.008,inactive: -0.031,inactive: 0.012,inactive: 0.015,active: -0.476,inactive: 0.243,inactive: 0.01,inactive: 0.041
DNAJB12 (UniProt Q9NXW2),inactive: 0.003,inactive: 0.012,inactive: 0.075,inactive: -0.027,inactive: 0.01,inactive: -0.017,inactive: 0.181,inactive: -0.079,inactive: 0.106,inactive: -0.086
DNAJC19 (UniProt Q96DA6),inactive: -0.021,inactive: 0.012,inactive: 0.003,inactive: -0.004,inactive: 0.017,inactive: -0.009,inactive: 0.028,inactive: -0.124,inactive: -0.004,inactive: -0.054
DHRS1 (UniProt Q96LJ7),inactive: 0.436,inactive: 0.187,inactive: 0.053,inactive: -0.045,inactive: 0.012,inactive: -0.029,inactive: -0.042,inactive: -0.05,inactive: 0.001,inactive: 0.026
DNAJC1 (UniProt Q96KC8),inactive: -0.019,inactive: 0.006,inactive: 0.053,inactive: 0.017,inactive: -0.012,inactive: 0.067,inactive: 0.033,active: -0.293,inactive: 0.029,inactive: -0.002
DMAP1 (UniProt Q9NPF5),inactive: 0.007,inactive: -0.005,inactive: -0.064,inactive: -0.002,inactive: 0.075,inactive: 0.001,inactive: 0.053,inactive: -0.112,inactive: -0.012,inactive: -0.034
DNAJC6 isoform 2 (UniProt O75061),inactive: 0.009,inactive: -0.01,inactive: -0.013,inactive: 0.086,inactive: -0.008,inactive: -0.004,inactive: -0.006,inactive: 0.058,inactive: 0.003,inactive: -0.001
DNAJC8 (UniProt O75937),inactive: -0.023,inactive: -0.005,inactive: -0.014,inactive: 0.059,inactive: 0.018,inactive: 0.056,inactive: 0.204,inactive: -0.115,inactive: -0.018,inactive: -0.013
DNAH12 (UniProt Q6ZR08),inactive: 0.083,,inactive: 0.074,,,,inactive: -0.131,inactive: 0.264,inactive: 0.052,
DOP1B (UniProt Q9Y3R5),inactive: 0.021,inactive: 0.059,,,inactive: 0.053,,inactive: -0.321,inactive: 0.125,,inactive: 0.125
DNAH9 (UniProt Q9NYC9),inactive: -0.021,inactive: -0.049,inactive: -0.05,inactive: 0.048,inactive: 0.043,inactive: -0.034,inactive: -0.043,inactive: 0.012,inactive: -0.07,inactive: 0.002
DHX34 (UniProt Q14147),inactive: 0.146,,inactive: -0.086,inactive: 0.068,,inactive: -0.097,inactive: 0.16,inactive: 0.057,inactive: 0.005,inactive: -0.01

Target,log2 fold change (vemurafenib),log2 fold change [1],log2 fold change (barasertib),log2 fold change [2],log2 fold change (volasertib),log2 fold change [3],log2 fold change [4],log2 fold change [5],log2 fold change (saracatinib),log2 fold change (sotrastaurin)
DGCR2 (UniProt P98153),inactive: -0.012,inactive: -0.253,,inactive: 0.16,inactive: -0.085,inactive: 0.064,inactive: 0.095,inactive: -0.048,inactive: 0.055,
DGKE (UniProt P52429),inactive: -0.11,,,inactive: 0.035,,inactive: 0.007,inactive: -0.02,inactive: 0.209,inactive: -0.225,
DGKH (UniProt Q86XP1),inactive: 0.128,,inactive: 0.055,inactive: 0.043,,inactive: -0.267,inactive: -0.12,inactive: 0.086,inactive: -0.018,inactive: 0.03
DNTTIP1 (UniProt Q9H147),inactive: -0.048,inactive: 0.094,,inactive: 0.073,inactive: 0.036,,inactive: 0.133,inactive: -0.157,inactive: 0.011,
DIAPH1 (UniProt H9KV28),inactive: 0.098,inactive: -0.01,inactive: 0.091,inactive: -0.049,inactive: -0.046,inactive: -0.046,inactive: -0.07,inactive: 0.153,,inactive: -0.001
DOT1L isoform 1 (UniProt Q8TEK3),inactive: 0.052,,,inactive: 0.026,,,,,inactive: -0.035,inactive: -0.163
DMBT1 isoform 6 (UniProt Q9UGM3),inactive: 0.13,,,inactive: -1.9,,,inactive: 1.19,inactive: -1.75,,
DMTN isoform 2 (UniProt Q08495),inactive: 0.113,inactive: 0.131,,inactive: 0.135,inactive: -0.325,,inactive: -0.124,inactive: 0.199,inactive: 0.117,inactive: -0.058
DNAJB2 (UniProt P25686),inactive: 0.158,,inactive: -0.075,inactive: 0.116,,,inactive: 0.005,inactive: 0.005,inactive: -0.012,inactive: -0.034
DNAJA2 (UniProt O60884),inactive: -0.028,inactive: -0.026,inactive: -0.003,inactive: 0.014,inactive: -0.006,inactive: 0.002,inactive: 0.12,inactive: -0.022,inactive: 0.008,inactive: -0.009
DNPEP (UniProt C9JBE1),inactive: 0.137,inactive: -0.017,inactive: -0.019,inactive: -0.033,inactive: 0.031,,inactive: -0.243,inactive: 0.094,,
DGKQ (UniProt P52824),inactive: 0.076,inactive: 0.096,,inactive: 0.03,inactive: -0.008,inactive: 0.031,inactive: -0.134,inactive: 0.071,inactive: 0,
DHPS (UniProt P49366),inactive: 0.006,inactive: -0.006,inactive: -0.032,inactive: 0.027,inactive: 0.033,inactive: -0.018,inactive: -0.047,inactive: 0.039,inactive: -0.012,inactive: 0.008
DNTTIP2 (UniProt Q5QJE6),inactive: 0.02,inactive: 0.088,inactive: 0.034,inactive: 0.062,inactive: -0.085,,inactive: -0.044,inactive: 0.019,inactive: 0.027,inactive: 0.043
DGAT1 (UniProt O75907),inactive: 0.034,inactive: -0.028,inactive: 0.012,inactive: 0.027,inactive: 0.034,inactive: -0.064,inactive: -0.048,inactive: 0.035,inactive: -0.007,inactive: 0.007
DNAJC2 (UniProt Q99543),inactive: -0.085,inactive: 0.032,inactive: -0.018,inactive: -0.073,inactive: -0.023,inactive: 0.02,inactive: -0.042,inactive: -0.054,inactive: 0.003,inactive: 0.03

# A different layout for part of the listing above:
Target | log2 fold change (vemurafenib) | log2 fold change [1] | log2 fold change (barasertib) | log2 fold change [2] | log2 fold change (volasertib) | log2 fold change [3] | log2 fold change [4] | log2 fold change [5] | log2 fold change (saracatinib) | log2 fold change (sotrastaurin)
DGKH (UniProt Q86XP1) | inactive: 0.128 |  | inactive: 0.055 | inactive: 0.043 |  | inactive: -0.267 | inactive: -0.12 | inactive: 0.086 | inactive: -0.018 | inactive: 0.03
DNTTIP1 (UniProt Q9H147) | inactive: -0.048 | inactive: 0.094 |  | inactive: 0.073 | inactive: 0.036 |  | inactive: 0.133 | inactive: -0.157 | inactive: 0.011 | 
DIAPH1 (UniProt H9KV28) | inactive: 0.098 | inactive: -0.01 | inactive: 0.091 | inactive: -0.049 | inactive: -0.046 | inactive: -0.046 | inactive: -0.07 | inactive: 0.153 |  | inactive: -0.001
DOT1L isoform 1 (UniProt Q8TEK3) | inactive: 0.052 |  |  | inactive: 0.026 |  |  |  |  | inactive: -0.035 | inactive: -0.163
DMBT1 isoform 6 (UniProt Q9UGM3) | inactive: 0.13 |  |  | inactive: -1.9 |  |  | inactive: 1.19 | inactive: -1.75 |  | 
DMTN isoform 2 (UniProt Q08495) | inactive: 0.113 | inactive: 0.131 |  | inactive: 0.135 | inactive: -0.325 |  | inactive: -0.124 | inactive: 0.199 | inactive: 0.117 | inactive: -0.058
DNAJB2 (UniProt P25686) | inactive: 0.158 |  | inactive: -0.075 | inactive: 0.116 |  |  | inactive: 0.005 | inactive: 0.005 | inactive: -0.012 | inactive: -0.034
DNAJA2 (UniProt O60884) | inactive: -0.028 | inactive: -0.026 | inactive: -0.003 | inactive: 0.014 | inactive: -0.006 | inactive: 0.002 | inactive: 0.12 | inactive: -0.022 | inactive: 0.008 | inactive: -0.009
